Results taken from US20200277377A1.
Results are given in words; binding and its absence hold for the method and conditions named. Some results given as binding are weak or reduced against the parent protein; the word gives no strength. Blank lines part the entries; values can stand above or below the binder they belong to.

Chains of the proteins cited; added tags and fusions are not shown. Lines headed by an entry give the natural chain unless they say otherwise; changes in a name come on top. A line that says so, or that is headed by a name, gives the form on record, which may keep a tag or linker. Residues count along the entry.
UniProt P16410: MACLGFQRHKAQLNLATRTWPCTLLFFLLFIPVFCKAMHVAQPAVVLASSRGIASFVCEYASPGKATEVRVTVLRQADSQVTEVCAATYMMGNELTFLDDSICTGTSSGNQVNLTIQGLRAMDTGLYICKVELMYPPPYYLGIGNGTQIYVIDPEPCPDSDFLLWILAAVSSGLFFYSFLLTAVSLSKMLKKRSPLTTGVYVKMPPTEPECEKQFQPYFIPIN
full length human CTLA-4 on cells: residues 36-223 of P16410
human CTLA-4.ECD.hFc: residues 36-161 of P16410
human CTLA-4.ECD-6×His (P16410, form named): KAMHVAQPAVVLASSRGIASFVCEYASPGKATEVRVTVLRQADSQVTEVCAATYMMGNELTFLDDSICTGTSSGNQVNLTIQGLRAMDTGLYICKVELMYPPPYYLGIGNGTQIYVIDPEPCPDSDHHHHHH
hCTLA4_ECD.His (N113 Q) (P16410, form named): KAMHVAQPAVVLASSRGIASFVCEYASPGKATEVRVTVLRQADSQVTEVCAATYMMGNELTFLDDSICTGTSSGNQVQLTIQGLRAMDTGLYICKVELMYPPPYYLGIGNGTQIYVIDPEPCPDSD
Murine CTLA-4.ECD-6×His (P09793, form named): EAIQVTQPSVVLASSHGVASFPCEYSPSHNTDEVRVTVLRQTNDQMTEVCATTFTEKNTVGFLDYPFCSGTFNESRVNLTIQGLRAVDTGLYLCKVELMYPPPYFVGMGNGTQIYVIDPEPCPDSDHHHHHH

What was measured:
[1] = target: T1, monkey CTLA-4 (Example 3 ELISA, construct not stated) (cynomolgus monkey) (UniProt G7PL88); experiment: ELISA, antibody titrated on cyno CTLA-4, OD450
T1 sequence: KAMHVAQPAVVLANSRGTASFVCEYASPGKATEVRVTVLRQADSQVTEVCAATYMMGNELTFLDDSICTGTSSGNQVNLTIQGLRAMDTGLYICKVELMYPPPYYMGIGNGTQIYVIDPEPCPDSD

[2] = target: T1, monkey CTLA-4 (Example 3 ELISA, construct not stated) (cynomolgus monkey); experiment: ELISA
[3] = target: biotinylated human CTLA-4 (Example 3 FACS competition) (human) (UniProt P16410); experiment: competition FACS: antibody mixed with biotinylated human CTLA-4, added to CD80-expressing cells (panel title W316-CHO-K1.hPro1.L1), bound CTLA-4 detected with streptavidin-PE [A]
[4] = target: human CTLA-4 (Example 3 ELISAs, construct not stated) (human) (UniProt P16410); experiment: competition ELISA: coated human CTLA-4, antibody mixed with biotinylated CD86, bound ligand detected with streptavidin-HRP [B) CD86]
[5] = target: human CTLA-4.ECD-6×His (human) (UniProt P16410); experiment: SPR, antibody captured on anti-human Fc, human CTLA-4 ECD injected at several concentrations
[6] = target: biotinylated human CTLA-4 (Example 3 FACS competition) (human) (UniProt P16410); experiment: competition FACS: antibody mixed with biotinylated human CTLA-4, added to CD86-expressing cells (panel title W316-CHO-K1.hPro1.L2), bound CTLA-4 detected with streptavidin-PE [B]
[7] = target: human CTLA-4 (Example 3 ELISAs, construct not stated) (human) (UniProt P16410); experiment: competition ELISA: coated human CTLA-4, antibody mixed with biotinylated CD80, bound ligand detected with streptavidin-HRP [A) CD80]
[8] = target: full length human CTLA-4 on cells (human) (UniProt P16410); experiment: FACS on a cell line expressing human CTLA-4, MFI
[9] = target: human CTLA-4.ECD-6×His (human) (UniProt P16410); experiment: SPR, antibody captured on immobilized goat anti-human Fc, human CTLA-4 ECD injected
[10] = target: full length human CTLA-4 on cells (human) (UniProt P16410); experiment: FACS on CTLA-4-expressing cell line
[11] = target: human CTLA-4 (Example 3 ELISAs, construct not stated) (human) (UniProt P16410); experiment: ELISA, antibody titrated on human CTLA-4, OD450
[12] = target: human CTLA-4 (Example 3 ELISAs, construct not stated) (human) (UniProt P16410); experiment: ELISA
[13] = target: CTLA-4.ECD (antigen panel of the specificity ELISA) (Homo sapiens (Human)) (UniProt P16410); experiment: specificity ELISA on coated antigens, antibody at 10 ug/mL, OD
[14] = target: CTLA-4.ECD (antigen panel of the specificity ELISA) (Homo sapiens (Human)) (UniProt P16410); experiment: ELISA, coated antigen 2 µg/mL, antibody 10 µg/mL
[15] = target: hCTLA4_ECD.His (N113 Q) (human) (UniProt P16410); experiment: capture ELISA with glycosylation-site mutein
[16] = target: Murine CTLA-4.ECD-6×His (mouse) (UniProt P09793); experiment: ELISA, antibody titrated on coated mouse CTLA-4.ECD-6xHis, OD450 [C) Murine CTLA-4]
[17] = target: hCTLA4_ECD.His (N113 Q) (human) (UniProt P16410); experiment: capture ELISA: W3162-1.146.19-z12 captured on anti-human Fc, hCTLA4-His mutein supernatant titrated (ng/ml), HRP-anti-His [B]
[18] = target: hCTLA-4.ECD.hFc-Biotin (human) (UniProt P16410); experiment: competition FACS: antibody mixed with hCTLA-4.ECD.hFc-Biotin, added to ligand-expressing CHO cells, streptavidin-PE; upper panel, not labelled on the sheet, taken as the CD80 cells from the order of the text [upper panel]
[19] = target: human CTLA-4.ECD.hFc (human) (UniProt P16410); experiment: competition ELISA: coated human CTLA-4.ECD.hFc, antibody pre-mixed with CD86-6xHis, bound ligand detected through anti-His [B) CD86]
[20] = target: Murine CTLA-4.ECD-6×His (mouse) (UniProt P09793); experiment: SPR
[21] = target: hCTLA-4.ECD.hFc-Biotin (human) (UniProt P16410); experiment: competition FACS: antibody mixed with hCTLA-4.ECD.hFc-Biotin, added to ligand-expressing CHO cells, streptavidin-PE; lower panel, not labelled on the sheet, taken as the CD86 cells from the order of the text [lower panel]
[22] = target: full length human CTLA-4 on cells (human) (UniProt P16410); experiment: FACS on 293F cells expressing human CTLA-4, PE anti-human IgG, MFI
[23] = target: human CTLA-4.ECD-6×His (human) (UniProt P16410); experiment: capture ELISA: W3162-1.146.19-z12 captured on anti-human Fc, hCTLA4-His supernatant titrated (ng/ml), HRP-anti-His [B]
[24] = target: human CTLA-4.ECD-6×His (human) (UniProt P16410); experiment: capture ELISA, antibody on anti-human Fc, hCTLA4-His, anti-His-HRP
[25] = target: full length human CTLA-4 on cells (human) (UniProt P16410); experiment: FACS affinity test on cells expressing human CTLA-4, B/F against bound IgG
[26] = target: human CTLA-4.ECD-6×His (human) (UniProt P16410); experiment: ELISA, antibody titrated on coated human CTLA-4.ECD-6xHis, OD450 [A) Human CTLA-4]
[27] = target: human CTLA-4.ECD.hFc (human) (UniProt P16410); experiment: competition ELISA: coated human CTLA-4.ECD.hFc, antibody pre-mixed with CD80-6xHis, bound ligand detected through anti-His [A) CD80]

B2: W3162-1.101.2 xAb.IgG1 (antibody, V domains shown)
VH: EEQLVESGGGLVQPGKSLKLSCSASGFTFRSSAMHWIRQPPGKGLDWVAFISSGGDTAYADAVKGRFIVSRDNAENTLFLQLNSLKSEDTAIYYCVRMERIPTWGQGVMVTVSS
VL: DIVLTQSPVLAVSLGQRATISCRASQSVSISSINLIHWYQQRPGQQPKLLIYRTSNLASGIPARFSGSGSGTDFTLSIDPVQADDVADYYCQQSRESPLTFGSGTKLEIK
binding [3]: binds
binding [4]: binds
binding [5]: binds
binding [6]: binds
binding [1]: binds
binding [7]: binds
binding [8]: binds
binding [9]: binds
binding [10]: binds
binding [11]: binds
binding [12]: binds
binding [2]: binds

B3: W3162_1.154.8-z35-uAb.IgG1K (antibody, V domains shown)
VH: QVQLVQSGAEVKKPGSSVKVSCKASGYTFTNYFMNWVRQAPGQGLEWMGRVDPEQGRADYAEKFKKRVTITADKSTSTAYMELSSLRSEDTAVYYCARRAMDNYGFAYWGQGTLVTVSS
VL: EIVLTQSPDFQSVTPKEKVTITCSANSALSYMYWYQQKPDQSPKLWVHGTSNLASGVPSRFSGSGSGTDFTLTINSLEAEDAATYYCHHWSNTQWTFGGGTKVEIK
binding [13]: binds
binding [14]: binds

B4: W3162-1.146.19 xAb.IgG1 (antibody, V domains shown)
VH: EVQLQESGPGLVKPSQSLSLTCSVTYHTITSGYDWTWIRKFPGNQMEWMGYISYSGNTNYNPSLKSRISITRDTSKNQFFLHLNSVTSEDTATYYCASMMVPHYYVMDAWGQGASVTVSS
VL: DVVLTQTPPTSSATIGQSVSISCRSSQSLLNSDGNTYLYWYLQRPSQSPQLLIYLVSKLGSGVPNRFSGSGSGTDFTLKISGVEAEDLGLYYCVQGTHDPWTFGGGTKLELK
binding [1]: binds
binding [2]: binds

Next, values leading:

binding [1]: binds
binding [2]: binds
B1: W3162-1.154.8 xAb.IgG1 (antibody, V domains shown)
VH: EVQLQQSGPEAGRPGSSVKISCKASGYTFTNYFMNWVKQSPGQGLEWIGRVDPENGRADYAEKFKKKATLTADTTSNTAYIHLSSLTSEDTATYFCARRAMDNYGFAYWGQGTLVTVSS
VL: EIMLTQSPTIMAASLGEKITITCSANSSLSYMYWFQQKSGASPKLWVHGTSNLASGVPDRFSGSGSGTSYYLTINTMEAEDAATYFCHHWSNTQWTFGGGTKLELK

binding [1]: binds
binding [2]: binds
B5: W3162-1.145.10 xAb.IgG1 (antibody, V domains shown)
VH: EVQLVESGGGLVQPGRSLKLSCAASDLTFSNYDMAWVRQTPTKGLEWVASISPNGGNTYYRDSVKGRFTVSRDNAKNSLYLQMDSLRSEDTATYYCARHLWFAYWGQGTLVTVSS
VL: DIQMTQSPSSMSASLGDRVTISCQASQDIGSNLIWFQQKPGKSPRPMIYYATHLADGVPSRFSGSRSGSDYSLTISSLESEDVADYHCLQYKQYPRTFGGGTKLELK

binding [15]: binds
binding [16]: binds
binding [17]: binds
binding [13]: binds
binding [18]: binds
binding [19]: binds
binding [20]: binds
binding [21]: binds
binding [22]: binds
binding [23]: binds
binding [14]: binds
binding [24]: binds
binding [25]: binds
binding [26]: binds
binding [27]: binds
B6: W3162-1.146.19-z12-uAb.IgG1K (antibody, V domains shown)
VH: QVQLQESGPGLVKPSETLSLTCSVTYHTITSGYDWTWIRKPPGKGMEWIGYISYSGNTNYNPSLKSRVTISRDTSKNQFFLKLSSVTAADTAVYYCASMMVPHYYVMDAWGQGTLVTVSS
VL: DIVMTQTPLSLSVTPGQPASISCRSSQSLLNSDGNTYLYWYLQKPGQSPQLLIYLVSKLGSGVPNRFSGSGSGTDFTLKISRVEAEDVGVYYCVQGTHDPWTFGGGTKVEIK
